Source: paper PMC6316800
These are yes or no findings as the source states them, for the method shown. Binding seen in cells or lysates may run through a third protein. A yes stands for co-enrichment or nearness to the bait. Other partners may have been found.

Amino acid sequences for entries named in this document (tags omitted).
UniProt P03496: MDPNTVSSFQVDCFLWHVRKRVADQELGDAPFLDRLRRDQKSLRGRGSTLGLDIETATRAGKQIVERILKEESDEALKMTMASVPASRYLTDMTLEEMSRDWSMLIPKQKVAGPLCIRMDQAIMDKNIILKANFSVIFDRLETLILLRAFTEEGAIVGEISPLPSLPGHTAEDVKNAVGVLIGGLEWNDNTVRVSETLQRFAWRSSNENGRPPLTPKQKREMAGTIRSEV

Target: Influenza A virus non-structural protein 1 (NS1), strain A/Puerto Rico/8/1934(H1N1) (Influenza A virus A/Puerto Rico/8/1934(H1N1)) (UniProt P03496)
Experiment: affinity purification with mass spectrometry

| Binder | binding |
| --- | --- |
| Ribosome production factor 2 homolog (protein, UniProt Q9H7B2 1-306) MDTLDRVVKPKTKRAKRFLEKREPKLNENIKNAMLIKGGNANATVTKVLKDVYALKKPYGVLYKKKNITRPFEDQTSLEFFSKKSDCSLFMFGSHNKKRPNNLVIGRMYDYHVLDMIELGIENFVSLKDIKNSKCPEGTKPMLIFAGDDFDVTEDYRRLKSLLIDFFRGPTVSNIRLAGLEYVLHFTALNGKIYFRSYKLLLKKSGCRTPRIELEEMGPSLDLVLRRTHLASDDLYKLSMKMPKALKPKKKKNISHDTFGTTYGRIHMQKQDLSKLQTRKMKGLKKRPAERITEDHEKKSKRIKKN | binds |
| Ribosomal RNA processing protein 1 homolog A (protein, UniProt P56182 1-461) MVSRVQLPPEIQLAQRLAGNEQVTRDRAVRKLRKYIVARTQRAAGGFTHDELLKVWKGLFYCMWMQDKPLLQEELGRTISQLVHAFQTTEAQHLFLQAFWQTMNREWTGIDRLRLDKFYMLMRMVLNESLKVLKMQGWEERQIEELLELLMTEILHPSSQAPNGVKSHFIEIFLEELTKVGAEELTADQNLKFIDPFCRIAARTKDSLVLNNITRGIFETIVEQAPLAIEDLLNELDTQDEEVASDSDESSEGGERGDALSQKRSEKPPAGSICRAEPEAGEEQAGDDRDSGGPVLQFDYEAVANRLFEMASRQSTPSQNRKRLYKVIRKLQDLAGGIFPEDEIPEKACRRLLEGRRQKKTKKQKRLLRLQQERGKGEKEPPSPGMERKRSRRRGVGADPEARAEAGEQPGTAERALLRDQPRGRGQRGARQRRRTPRPLTSARAKAANVQEPEKKKKRRE | binds |
| Putative RNA-binding protein 15 (protein, UniProt Q96T37 1-977) MRTAGRDPVPRRSPRWRRAVPLCETSAGRRVTQLRGDDLRRPATMKGKERSPVKAKRSRGGEDSTSRGERSKKLGGSGGSNGSSSGKTDSGGGSRRSLHLDKSSSRGGSREYDTGGGSSSSRLHSYSSPSTKNSSGGGESRSSSRGGGGESRSSGAASSAPGGGDGAEYKTLKISELGSQLSDEAVEDGLFHEFKRFGDVSVKISHLSGSGSGDERVAFVNFRRPEDARAAKHARGRLVLYDRPLKIEAVYVSRRRSRSPLDKDTYPPSASVVGASVGGHRHPPGGGGGQRSLSPGGAALGYRDYRLQQLALGRLPPPPPPPLPRDLERERDYPFYERVRPAYSLEPRVGAGAGAAPFREVDEISPEDDQRANRTLFLGNLDITVTESDLRRAFDRFGVITEVDIKRPSRGQTSTYGFLKFENLDMSHRAKLAMSGKIIIRNPIKIGYGKATPTTRLWVGGLGPWVPLAALAREFDRFGTIRTIDYRKGDSWAYIQYESLDAAHAAWTHMRGFPLGGPDRRLRVDFADTEHRYQQQYLQPLPLTHYELVTDAFGHRAPDPLRGARDRTPPLLYRDRDRDLYPDSDWVPPPPPVRERSTRTAATSVPAYEPLDSLDRRRDGWSLDRDRGDRDLPSSRDQPRKRRLPEESGGRHLDRSPESDRPRKRHCAPSPDRSPELSSSRDRYNSDNDRSSRLLLERPSPIRDRRGSLEKSQGDKRDRKNSASAERDRKHRTTAPTEGKSPLKKEDRSDGSAPSTSTASSKLKSPSQKQDGGTAPVASASPKLCLAWQGMLLLKNSNFPSNMHLLQGDLQVASSLLVEGSTGGKVAQLKITQRLRLDQPKLDEVTRRIKVAGPNGYAILLAVPGSSDSRSSSSSAASDTATSTQRPLRNLVSYLKQKQAAGVISLPVGGNKDKENTGVLHAFPPCEFSQQFLDSPAKALAKSEEDYLVMIIVRGFGFQIGVRYENKKRENLALTLL | binds |
| Cirhin (protein, UniProt Q969X6 1-686) MGEFKVHRVRFFNYVPSGIRCVAYNNQSNRLAVSRTDGTVEIYNLSANYFQEKFFPGHESRATEALCWAEGQRLFSAGLNGEIMEYDLQALNIKYAMDAFGGPIWSMAASPSGSQLLVGCEDGSVKLFQITPDKIQFERNFDRQKSRILSLSWHPSGTHIAAGSIDYISVFDVKSGSAVHKMIVDRQYMGVSKRKCIVWGVAFLSDGTIISVDSAGKVQFWDSATGTLVKSHLIANADVQSIAVADQEDSFVVGTAEGTVFHFQLVPVTSNSSEKQWVRTKPFQHHTHDVRTVAHSPTALISGGTDTHLVFRPLMEKVEVKNYDAALRKITFPHRCLISCSKKRQLLLFQFAHHLELWRLGSTVATGKNGDTLPLSKNADHLLHLKTKGPENIICSCISPCGSWIAYSTVSRFFLYRLNYEHDNISLKRVSKMPAFLRSALQILFSEDSTKLFVASNQGALHIVQLSGGSFKHLHAFQPQSGTVEAMCLLAVSPDGNWLAASGTSAGVHVYNVKQLKLHCTVPAYNFPVTAMAIAPNTNNLVIAHSDQQVFEYSIPDKQYTDWSRTVQKQGFHHLWLQRDTPITHISFHPKRPMHILLHDAYMFCIIDKSLPLPNDKTLLYNPFPPTNESDVIRRRTAHAFKISKIYKPLLFMDLLDERTLVAVERPLDDIIAQLPPPIKKKKFGT | binds |
| Ribosome-binding protein 1 (protein, UniProt Q9P2E9 1-1410) MDIYDTQTLGVVVFGGFMVVSAIGIFLVSTFSMKETSYEEALANQRKEMAKTHHQKVEKKKKEKTVEKKGKTKKKEEKPNGKIPDHDPAPNVTVLLREPVRAPAVAVAPTPVQPPIIVAPVATVPAMPQEKLASSPKDKKKKEKKVAKVEPAVSSVVNSIQVLTSKAAILETAPKEVPMVVVPPVGAKGNTPATGTTQGKKAEGTQNQSKKAEGAPNQGRKAEGTPNQGKKTEGTPNQGKKAEGTPNQGKKAEGTPNQGKKAEGAQNQGKKVDTTPNQGKKVEGAPTQGRKAEGAQNQAKKVEGAQNQGKKAEGAQNQGKKGEGAQNQGKKAEGAQNQGKKAEGAQNQGKKAEGAQNQGKKAEGAQNQGKKAEGAQNQGKKAEGAQNQGKKVEGAQNQGKKAEGAQNQGKKAEGAQNQGKKAEGAQNQGKKAEGAQNQGKKAEGAQNQGKKAEGAQNQGKKAEGAQNQGKKVEGAQNQGKKAEGAQNQGKKAEGAQNQGKKAEGAQNQGQKGEGAQNQGKKTEGAQGKKAERSPNQGKKGEGAPIQGKKADSVANQGTKVEGITNQGKKAEGSPSEGKKAEGSPNQGKKADAAANQGKKTESASVQGRNTDVAQSPEAPKQEAPAKKKSGSKKKGEPGPPDADGPLYLPYKTLVSTVGSMVFNEGEAQRLIEILSEKAGIIQDTWHKATQKGDPVAILKRQLEEKEKLLATEQEDAAVAKSKLRELNKEMAAEKAKAAAGEAKVKKQLVAREQEITAVQARMQASYREHVKEVQQLQGKIRTLQEQLENGPNTQLARLQQENSILRDALNQATSQVESKQNAELAKLRQELSKVSKELVEKSEAVRQDEQQRKALEAKAAAFEKQVLQLQASHRESEEALQKRLDEVSRELCHTQSSHASLRADAEKAQEQQQQMAELHSKLQSSEAEVRSKCEELSGLHGQLQEARAENSQLTERIRSIEALLEAGQARDAQDVQASQAEADQQQTRLKELESQVSGLEKEAIELREAVEQQKVKNNDLREKNWKAMEALATAEQACKEKLLSLTQAKEESEKQLCLIEAQTMEALLALLPELSVLAQQNYTEWLQDLKEKGPTLLKHPPAPAEPSSDLASKLREAEETQSTLQAECDQYRSILAETEGMLRDLQKSVEEEEQVWRAKVGAAEEELQKSRVTVKHLEEIVEKLKGELESSDQVREHTSHLEAELEKHMAAASAECQNYAKEVAGLRQLLLESQSQLDAAKSEAQKQSDELALVRQQLSEMKSHVEDGDIAGAPASSPEAPPAEQDPVQLKTQLEWTEAILEDEQTQRQKLTAEFEEAQTSACRLQEELEKLRTAGPLESSETEEASQLKERLEKEKKLTSDLGRAATRLQELLKTTQEQLAREKDTVKKLQEQLEKAEDGSSSKEGTSV | binds |
| RNA-binding protein 34 (protein, UniProt P42696 1-430) MALEGMSKRKRKRSVQEGENPDDGVRGSPPEDYRLGQVASSLFRGEHHSRGGTGRLASLFSSLEPQIQPVYVPVPKQTIKKTKRNEEEESTSQIERPLSQEPAKKVKAKKKHTNAEKKLADRESALASADLEEEIHQKQGQKRKNSQPGVKVADRKILDDTEDTVVSQRKKIQINQEEERLKNERTVFVGNLPVTCNKKKLKSFFKEYGQIESVRFRSLIPAEGTLSKKLAAIKRKIHPDQKNINAYVVFKEESAATQALKRNGAQIADGFRIRVDLASETSSRDKRSVFVGNLPYKVEESAIEKHFLDCGSIMAVRIVRDKMTGIGKGFGYVLFENTDSVHLALKLNNSELMGRKLRVMRSVNKEKFKQQNSNPRLKNVSKPKQGLNFTSKTAEGHPKSLFIGEKAVLLKTKKKGQKKSGRPKKQRKQK | binds |
| Ribosome production factor 1 (protein, UniProt Q9H9Y2 1-349) MAKAGDKSSSSGKKSLKRKAAAEELQEAAGAGDGATENGVQPPKAAAFPPGFSISEIKNKQRRHLMFTRWKQQQRKEKLAAKKKLKKEREALGDKAPPKPVPKTIDNQRVYDETTVDPNDEEVAYDEATDEFASYFNKQTSPKILITTSDRPHGRTVRLCEQLSTVIPNSHVYYRRGLALKKIIPQCIARDFTDLIVINEDRKTPNGLILSHLPNGPTAHFKMSSVRLRKEIKRRGKDPTEHIPEIILNNFTTRLGHSIGRMFASLFPHNPQFIGRQVATFHNQRDYIFFRFHRYIFRSEKKVGIQELGPRFTLKLRSLQKGTFDSKYGEYEWVHKPREMDTSRRKFHL | binds |
| RNA-binding protein 28 (protein, UniProt Q9NW13 1-759) MAGLTLFVGRLPPSARSEQLEELFSQVGPVKQCFVVTEKGSKACRGFGYVTFSMLEDVQRALKEITTFEGCKINVTVAKKKLRNKTKEKGKNENSECPKKEPKAKKAKVADKKARLIIRNLSFKCSEDDLKTVFAQFGAVLEVNIPRKPDGKMRGFGFVQFKNLLEAGKALKGMNMKEIKGRTVAVDWAVAKDKYKDTQSVSAIGEEKSHESKHQESVKKKGREEEDMEEEENDDDDDDDDEEDGVFDDEDEEEENIESKVTKPVQIQKRAVKRPAPAKSSDHSEEDSDLEESDSIDDGEELAQSDTSTEEQEDKAVQVSNKKKRKLPSDVNEGKTVFIRNLSFDSEEEELGELLQQFGELKYVRIVLHPDTEHSKGCAFAQFMTQEAAQKCLLAASPENEAGGLKLDGRQLKVDLAVTRDEAAKLQTTKVKKPTGTRNLYLAREGLIRAGTKAAEGVSAADMAKRERFELLKHQKLKDQNIFVSRTRLCLHNLPKAVDDKQLRKLLLSATSGEKGVRIKECRVMRDLKGVHGNMKGQSLGYAFAEFQEHEHALKALRLINNNPEIFGPLKRPIVEFSLEDRRKLKMKELRIQRSLQKMRSKPATGEPQKGQPEPAKDQQQKAAQHHTEEQSKVPPEQKRKAGSTSWTGFQTKAEVEQVELPDGKKRRKVLALPSHRGPKIRLRDKGKVKPVHPKKPKPQINQWKQEKQQLSSEQVSRKKAKGNKTETRFNQLVEQYKQKLLGPSKGAPLAKRSKWFDS | binds |
